Reference: publication PMC3150355
The exact form of at least one protein or probe is not confirmed. For some assays here: Negatives hold for the conditions tested.

Protein sequences, listed by entry. Tags and fused reporters are not part of them. Lines headed by an entry give the natural chain unless they say otherwise; changes in a name come on top.
UniProt Q8NHW3: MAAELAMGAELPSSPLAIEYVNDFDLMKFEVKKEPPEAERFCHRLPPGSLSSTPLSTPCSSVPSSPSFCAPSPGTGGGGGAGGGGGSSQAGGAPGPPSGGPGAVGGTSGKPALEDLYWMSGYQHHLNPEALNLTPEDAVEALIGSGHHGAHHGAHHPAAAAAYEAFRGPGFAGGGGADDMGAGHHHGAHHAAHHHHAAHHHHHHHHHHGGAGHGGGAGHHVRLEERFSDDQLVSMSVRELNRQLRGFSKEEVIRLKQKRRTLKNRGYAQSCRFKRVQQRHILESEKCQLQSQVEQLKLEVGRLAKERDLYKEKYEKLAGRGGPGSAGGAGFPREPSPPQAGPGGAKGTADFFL

Columns and labels:
ERK2 kinase alone = assay: EMSA; details: kinase alone, PBS instead of TAT-MafA; Pierce LightShift chemiluminescent EMSA kit; 200 fmol/ul biotin-DNA, unlabeled competitor 10 pmol/ul, 82.15 ug TAT-MafA; ERK2 or PBS 37 C 1 h, then 20 min binding; commercial protein
[1] = biological target: TAT-MafA, ERK2 kinase treated (human) (UniProt Q8NHW3); assay: EMSA; details: ERK2-phosphorylated TAT-MafA; Pierce LightShift chemiluminescent EMSA kit; 200 fmol/ul biotin-DNA, unlabeled competitor 10 pmol/ul, 82.15 ug TAT-MafA; ERK2 or PBS 37 C 1 h, then 20 min binding; recombinant protein

Sequence: ATGGTCCGGAAATTGCAGCCTCAGCCCCCAGCCATC (double strand) [insulin promoter -139 to -104 (C1 box)]
- binding result (ERK2 kinase alone): no binding
- binding result [1]: binds
